Structures can show the parent of a compound that is named as a salt. Where two headings read alike, the source gives them in different places. Among all 3,300 compounds or so, about 95 (3%) showed an effect of 50% or more. The list shows a part of the results.
Test system: HCoV-229E
Design: species or system Huh-7; HTS, protection from HCoV-229E induced cell death, luminescent cell viability (CellCounting-Lite 2.0), inhibition rate
Conditions: 24 h post infection, 1 h compound pre-incubation, 10 µM, inhibitor

CC1=NCC[C@@H](C(=O)O)N1 [Ectoine]
229E Inhibition rate: 11.8%

Oc1cccc2ccccc12 [1-Naphthol]
229E Inhibition rate: 14.6%

COC(=O)/C=C/c1ccc(O)cc1 [Methyl p-coumarate]
229E Inhibition rate (229E Inhibition rate, 24 h): 15.5%

O=C1O[C@H]([C@@H](O)CO)C(O)=C1OP(=O)(O)O [L-Ascorbic acid 2-phosphate (trisodium)]
229E Inhibition rate: 10.8%

C[C@H](O)CO [(S)-(+)-1,2-Propanediol]
229E Inhibition rate: 27%

COC(=O)c1cc(O)c(O)c(OC)c1 [Methyl 3-O-methylgallate]
229E Inhibition rate: 23.6%

O=C1C[C@@H](O[C@@H]2O[C@H](CO)[C@@H](O)[C@H](O)[C@H]2O)CO1 [Kinsenoside]
229E Inhibition rate: 14.3%

CC(C)C[C@@H](N)C(=O)O [D-Leucine]
229E Inhibition rate: 7.1%

CCCCCCCCC/C=C/C(=O)CCc1ccc(O)c(OC)c1 [[10]-Shogaol]
229E Inhibition rate: 9.6%

C[n+]1c2n(c(=O)c3ccccc31)CCc1c-2[nH]c2ccccc12 [Dehydroevodiamine (hydrochloride)]
229E Inhibition rate: 28.8%

CO[C@H]1C[C@H](O[C@H]2[C@H](C)O[C@@H](O[C@@H]3/C(C)=C/C[C@@H]4C[C@@H](C[C@]5(C=C[C@H](C)[C@@H](C6CCCCC6)O5)O4)OC(=O)[C@@H]4C=C(C)[C@@H](O)[C@H]5OC/C(=C\C=C\[C@@H]3C)[C@]54O)C[C@@H]2OC)O[C@@H](C)[C@@H]1O [Doramectin]
229E Inhibition rate: 25.8%

CC(=O)O[C@H]1CC[C@]2(C)C3=C(CC[C@H]2C1(C)C)[C@]1(C)CC[C@H]([C@@H](CCC=C(C)C)C(=O)O)[C@@]1(C)CC3 [Tsugaric acid A]
229E Inhibition rate: 14.6%

Cc1c2ccncc2c(C)c2c1[nH]c1ccccc12 [Ellipticine (hydrochloride)]
229E Inhibition rate: 3.3%

CC1(C)C=Cc2c(ccc(-c3coc4cc(O)ccc4c3=O)c2O)O1 [Glabrone]
229E Inhibition rate: 9.7%

CC(C)=C/C=C1\O[C@@H]2CC(C)=CC(=O)[C@@H]2[C@]1(C)O [Bisabolangelone]
229E Inhibition rate: 30%

O=C(O)c1ccc(O)c(O)c1 [Protocatechuic acid]
229E Inhibition rate: 4.4%

CC(C)NCC(O)COc1cccc2ccccc12 (stereo not drawn) [Propranolol]
229E Inhibition rate (229E Inhibition rate, 24 h): 13.6%

O=C1CCCCN1 [2-Piperidone]
229E Inhibition rate: 11.6%

C=C(C)[C@@H]1CC=C(C)CC1 [(-)-Limonene]
229E Inhibition rate: 28.1%

CC1NC(=O)CNC1=O (stereo not drawn) [Cyclo(Ala-Gly)]
229E Inhibition rate: 39.9%

C=C(C(=O)c1c(OC)cc2c(c1OC)OCO2)c1ccccc1O [Biliatresone]
229E Inhibition rate: 1.5%

CCC(=O)C(C)=O [2,3-Pentanedione]
229E Inhibition rate: 0%

CCCCCCCCCCCCCCCCCCOCC(O)CO (stereo not drawn) [Batilol]
229E Inhibition rate: 11.7%

C=C1C(=O)O[C@H]2C[C@@H](C)[C@@H]3[C@@H](OC(C)=O)C[C@H](O)[C@@]3(C)[C@@H](OC(C)=O)[C@H]12 [Britannin]
229E Inhibition rate: 3%

N#Cc1ccc(C(c2ccc(C#N)cc2)n2cncn2)cc1 [Letrozole]
229E Inhibition rate: 10.7%

CC1=C[C@H]2[C@@]3(O)[C@H](C)[C@@H](O)[C@]4(O)[C@H]([C@@H]3C=C(CO)C[C@]2(O)C1=O)C4(C)C [Phorbol]
229E Inhibition rate: 48.6%

N[C@@H](Cc1c[nH]cn1)C(=O)O [L-Histidine (hydrochloride hydrate)]
229E Inhibition rate (229E Inhibition rate, 24 h): 7%

CC(C)CC(N)=O [Isovaleramide]
229E Inhibition rate: 31.1%

CC1(C)CC[C@]2(C(=O)O[C@@H]3O[C@H](CO)[C@@H](O)[C@H](O)[C@H]3O)CC[C@]3(C)C(=CC[C@@H]4[C@@]5(C)CC[C@H](O[C@@H]6O[C@H](C(=O)O)[C@@H](O)[C@H](O)[C@H]6O)C(C)(C)[C@@H]5CC[C@]43C)[C@@H]2C1 [Chikusetsusaponin Iva]
229E Inhibition rate: 16%

COc1ccc(CCO)cc1 [4-Methoxyphenethyl alcohol]
229E Inhibition rate: 5.3%

COc1c2occc2cc2ccc(=O)oc12 [Methoxsalen]
229E Inhibition rate: 9.9%

O=C(N[C@@H](Cc1ccccc1)C(=O)N[C@H](CO)Cc1ccccc1)c1ccccc1 [Aurantiamide]
229E Inhibition rate: 23.1%

Oc1ccc2ccccc2c1 [2-Naphthol]
229E Inhibition rate: 16.6%

CSCCC(NC(C)=O)C(=O)O (racemic) [N-Acetyl-DL-methionine]
229E Inhibition rate: 32.7%

C=C[C@H]1[C@H](O[C@@H]2O[C@H](CO)[C@@H](O)[C@H](O)[C@H]2O)OC=C2C(=O)N3CCc4c([nH]c5ccccc45)[C@@H]3C[C@H]21 [Strictosamide]
229E Inhibition rate: 26.8%

OC[C@@H](O)[C@@H](O)[C@H](O)[C@@H](O)CO [D-Sorbitol]
229E Inhibition rate: 32.7%

O=C1CCN([C@@H]2O[C@H](CO)[C@@H](O)[C@H]2O)C(=O)N1 [5,6-Dihydrouridine]
229E Inhibition rate: 10.1%

COc1cc2c(cc1OC)-c1cc3ccc(OC)c(O)c3c[n+]1CC2 [Palmaturbine]
229E Inhibition rate (229E Inhibition rate, 24 h): 10%

CC1(C)O[C@H]2CC(=O)OC[C@@]23[C@H]1CC(=O)[C@@]1(C)C2=CC(=O)O[C@@H](c4ccoc4)[C@]2(C)CC[C@@H]13 [Deoxylimonin]
229E Inhibition rate: 9.8%

C[C@@H]1O[C@@H](O[C@H]2C(=O)c3c(O)cc(O)cc3O[C@H]2c2ccc(O)c(O)c2)[C@H](O)[C@H](O)[C@H]1O [Neoisoastilbin]
229E Inhibition rate: 23.6%

CC1(C)CC[C@]2(C(=O)O[C@@H]3O[C@H](CO)[C@@H](O)[C@H](O)[C@H]3O)[C@H](O)C[C@]3(C)C(=CC[C@@H]4[C@@]5(C)CC[C@H](O[C@@H]6O[C@H](CO)[C@@H](O)[C@H](O)[C@H]6O)C(C)(C)[C@@H]5CC[C@]43C)[C@@H]2C1 [Eclalbasaponin I]
229E Inhibition rate: 18.5%

CC(=O)OCC(=O)[C@@]1(O)CC[C@H]2[C@@H]3CCC4=CC(=O)CC[C@]4(C)[C@H]3C(=O)C[C@@]21C [Cortisone acetate]
229E Inhibition rate: 14.1%

Cc1ncc(C[n+]2csc(CCOP(=O)(O)O)c2C)c(N)n1 [Thiamine monophosphate (chloride) (dihydrate)]
229E Inhibition rate: 12.1%

C[S+](CCC(N)C(=O)[O-])C[C@H]1O[C@@H](n2cnc3c(N)ncnc32)[C@H](O)[C@@H]1O (mixture of isomers) [S-Adenosyl-DL-methionine]
229E Inhibition rate: 7.2%

C[C@]12CCC(=O)C[C@H]1CC[C@@H]1[C@@H]2[C@@H](O)C[C@@]2(C)[C@H]1CC[C@]2(O)C(=O)CO [5β-Dihydrocortisol]
229E Inhibition rate: 24%

COc1cc(O)c(C(C)=O)c(OC)c1 [Xanthoxylin]
229E Inhibition rate: 7.1%

CC(C)=C[C@H]1C[C@](C)(O)[C@@H]2[C@H]3CC[C@@H]4[C@@]5(C)CC[C@H](O[C@@H]6OC[C@H](O)[C@H](O[C@@H]7O[C@H](CO)[C@@H](O)[C@H](O)[C@H]7O[C@@H]7OC[C@@H](O)[C@H](O)[C@H]7O)[C@H]6O[C@@H]6O[C@@H](C)[C@H](O)[C@@H](O)[C@H]6O)C(C)(C)[C@@H]5CC[C@@]4(C)[C@@]34CO[C@@]2(C4)O1 [Jujuboside B]
229E Inhibition rate: 25.2%

CC1(C)CC[C@]2(C(=O)O[C@@H]3O[C@H](CO[C@@H]4O[C@H](CO)[C@@H](O)[C@H](O)[C@H]4O)[C@@H](O)[C@H](O)[C@H]3O)CC[C@]3(C)C(=CC[C@@H]4[C@@]5(C)CC[C@H](O[C@@H]6OC[C@H](O)[C@H](O)[C@H]6O)[C@@](C)(CO)[C@@H]5CC[C@]43C)[C@@H]2C1 [Asperosaponin VI]
229E Inhibition rate: 56.6%

C=C(C)[C@@H]1CCC2=CCC[C@@H](C)[C@]2(C)C1 [Valencene]
229E Inhibition rate: 10.6%

O=C1c2c(O)cc(O)cc2O[C@H](c2ccc(O)c(O)c2)[C@H]1O [Taxifolin]
229E Inhibition rate: 21.5%

CC(C)(O)CC[C@@H](O)[C@](C)(O)[C@H]1CC[C@@]2(O)C3=CC(=O)[C@@H]4C[C@@H](O)[C@@H](O)C[C@]4(C)[C@H]3CC[C@]12C [Crustecdysone]
229E Inhibition rate: 13.7%

COc1ccc2c(c1O)-c1c(O)c(OC)cc3c1[C@H](C2)[N+](C)(C)CC3 [(+)-Magnoflorine (chloride)]
229E Inhibition rate: 15.4%

COc1cc2c(cc1OC)-c1c(OC)c(OC)cc3c1[C@H](C2)N(C)CC3 [Glaucine]
229E Inhibition rate: 14.2%

CCCCCC/C=C\CCCC(=O)O [cis-5-Dodecenoic acid]
229E Inhibition rate: 63.5%

CCCCC/C=C\C/C=C\CCCCCCCC(=O)NCc1ccccc1 [N-Benzyllinoleamide]
229E Inhibition rate: 24.5%

C[C@H]1C(=O)O[C@@H]2CCN3CC=C(COC(=O)[C@](C)(O)[C@]1(C)O)[C@H]23 [Monocrotaline]
229E Inhibition rate: 13%

Nc1ccccc1C(=O)C[C@H](N)C(=O)O [2-Amino-4-(2-aminophenyl)-4-oxobutanoic acid]
229E Inhibition rate (229E Inhibition rate, 24 h): 45.7%

CN1C[C@@H]2C[C@H](C1)c1cccc(=O)n1C2 [N-Methylcytisine]
229E Inhibition rate: 23.5%

O=C1c2cccc(O)c2C(=O)c2c(O)cc(CO)cc21 [Aloe emodin]
229E Inhibition rate: 13.6%

CC1(C)O[C@H]1COc1c2ccoc2cc2oc(=O)ccc12 [Oxypeucedanin]
229E Inhibition rate: 0%

O=Cc1ccoc1 [3-Furaldehyde]
229E Inhibition rate: 22%

C=CCC1=C[C@]2(OC)C(=O)C(OC)(OC)[C@H]1[C@@H]1C(OC)(OC)C(=O)C(OC)=C[C@@]12CC=C [Asatone]
229E Inhibition rate: 27.8%

C=C(C)[C@H](CC=C(C)C)Cc1c(O)cc(OC)c2c1O[C@H](c1ccc(O)cc1OC)CC2=O [(2S)-2'-Methoxykurarinone]
229E Inhibition rate: 62.1%

— paper PMC12431657, “Discovery and mechanistic insights of dibenzoylmethane as a broad spectrum inhibitor of coronavirus” (PLOS Pathogens, 2025)
